Our source for the cell number change and AC50 values is PubChem BioAssay AID2685 (National Center for Advancing Translational Sciences (NCATS), 2010).

Molecules are shown by their SMILES. The list shows a part of the results. These are further read-outs of the screen, such as a control signal, another cell line or another target. No call is given for them. Compounds called inactive in the main read-out are mostly missing here. The note in brackets gives the kind of curve behind each potency; many fits are weak.

The nature of the experiment: qHTS Assay for Lipid Storage Modulators in Drosophila S3 Cells.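 As to cell number change: cells counted by Cell Tracker Red CMTPX staining in the red channel.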 The settings on record: BODIPY lipid droplet fluorescence, 18-24 h; for cell number change: measured here: cell count max response, cells fed with added oleic acid. The method, boiled down: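 Laser-scanning cytometry quantifies lipid droplet accumulation (500–530 nm total intensity; droplet/cell object ratio) in oleic acid-fed (400 uM added) Drosophila S3 cells treated with a concentration series. 20 uM Triacsin C defined 100% inhibition.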

The mark [1] stands for this setting: measured here: lipid fluorescence (Fed channel) AC50, cells fed with added oleic acid.
Where [2] appears, read: measured here: cell number channel AC50, cells fed with added oleic acid.

For orientation: AC50 means the concentration at which the activity in the assay is half-maximal. The low end stands for greater potency, the high end for weaker potency. For the compound `COc1cccc2c(=O)n(CC(=O)N3CCN(c4ccccc4)CC3)ccc12`, the cell number change was 14.1%. For the same compound, under setting [1], the concentration at half-maximal activity (AC50) is 73.1 nM [rising, full curve, poor fit].
For the compound `Cc1c(N=C2N=C(NC(=O)c3cccs3)c3ccccc32)c(=O)n(-c2ccccc2)n1C`, the cell number change is 31.1%. Moreover, the half-maximal activity concentration (AC50) under setting [2] is 146 nM [rising, full curve, poor fit].
Consider `C=CCN1C(=O)/C(=C/c2cccs2)S/C1=N\S(=O)(=O)c1ccc(F)cc1`, for which the cell number change is -4.54%. Moreover, under setting [1], the AC50 was 3260 nM [falling, full curve, poor fit].
Consider `O=c1oc2ccccc2c(NC2CCCCC2)c1NS(=O)(=O)c1ccc(F)cc1`, for which the cell number change was -37.5%. For the same compound, the AC50 under setting [2] was 3260 nM [falling, partial curve, poor fit]. Further, under setting [1], the AC50 was 7310 nM [falling, partial curve].
Consider `Cc1cccn2cc(-c3ccccc3)nc12`, for which the cell number change is 22.9%. The concentration at half-maximal activity (AC50) under setting [1] was 29100 nM [rising, single point].
In the case of `COCCn1nnnc1C(c1ccccc1)N1CCN(C)CC1` (stereo not drawn), the cell number change was -35%. Also, the half-maximal activity concentration (AC50) under setting [2] was 5.17 nM [falling, full curve, poor fit]. For the same compound, under setting [1], the AC50 is 10300 nM [falling, partial curve, poor fit].
For `Nc1c2c(nc3c1CCCC3)CCCC2` (tested in a mixture with another compound), the cell number change was -28.3%. Moreover, the AC50 under setting [2] is 4610 nM [falling, full curve, poor fit]. Under setting [1], the half-maximal activity concentration (AC50) is 10300 nM [falling, partial curve, poor fit].
As for `Cc1cccc(NC(=O)Cc2nnc(NC(=O)Nc3ccccc3F)s2)c1`, the cell number change is 4.8%. In addition, the AC50 under setting [1] is 146 nM [falling, full curve, poor fit].
Regarding `COCCNC(=O)Cn1ncc2ccsc2c1=O`, the cell number change was -44.5%. The concentration at half-maximal activity (AC50) under setting [2] was 1640 nM [falling, partial curve, poor fit]. In addition, the AC50 under setting [1] is 146 nM [falling, full curve, poor fit].
Regarding `COc1cc(C2C(C#N)=C(N)Oc3n[nH]c(-c4cccnc4)c32)ccc1OCC(N)=O` (stereo not drawn), the cell number change worked out at 13.2%. Moreover, under setting [1], the AC50 is 14600 nM [falling, partial curve].
As for `COC(=O)c1cn(NC(=O)c2cccc(N(C)C)c2)c(=O)c2ccccc12`, the cell number change turned out to be 3.91%.
As for `CC(C)c1ccc(NS(=O)(=O)c2ccc3c(c2)oc(=O)n3C)cc1`, the cell number change was found to be 12%. Also, the half-maximal activity concentration (AC50) under setting [1] is 1840 nM [rising, full curve, poor fit].
In the case of `COc1ccc2nc(C(F)(F)C(F)(F)F)c(C#N)c(N)c2c1`, the cell number change was 10.2%. The AC50 under setting [1] was 731 nM [rising, single point].
Take `COc1ccc(CCC(=O)Nc2ncc(C)s2)cc1`: the cell number change is 2.78%. Besides, the concentration at half-maximal activity (AC50) under setting [1] is 29100 nM [falling, single point].
Turning to `CCC(C)NC(=O)C(Cc1ccccc1)n1cccc1` (stereo not drawn), the cell number change was -13.7%. Besides, the AC50 under setting [1] was 9200 nM [falling, partial curve].
Turning to `CCN(CC)c1ccc(NC(=O)CN2CCN(CC(=O)Nc3ccc(OC)cc3)CC2)cc1`, the concentration at half-maximal activity (AC50) under setting [2] was 651 nM [rising, single point] and the AC50 under setting [1] is 580 nM [rising, single point].
Turning to `COc1ccc(CNC(=O)C2CC(=O)N(C3CCCC3)C2)cc1` (stereo not drawn), the cell number change amounted to 7.82%.
Take `COc1ccc(Nc2nnc(C)c3ccccc23)cc1`: the cell number change was -4.05%.
As to `Cn1c(/C(C#N)=C(\O)c2cc(Cl)sc2Cl)nc2ccccc21`, the cell number change is 10.3%. For the same compound, under setting [1], the AC50 was 651 nM [rising, partial curve, poor fit].
Regarding `COc1ccc(-c2nc(CS(=O)CC(=O)NCC3CCCO3)c(C)o2)cc1` (stereo not drawn), the cell number change is -11.2%. Besides, the AC50 under setting [1] was 32600 nM [falling, single point].
In the case of `Cc1ccc(C(=O)C(C)N2C(=O)NC(C)(c3ccccc3)C2=O)cc1` (stereo not drawn), the cell number change came to 9.16%. Besides, under setting [2], the AC50 is 517 nM [rising, single point].
On to `O=C(COC(=O)c1cccc(Cl)c1Cl)NCc1cccs1`, for which the cell number change was determined as 0.423%. In addition, the AC50 under setting [1] was 164 nM [rising, full curve, poor fit].
For the compound `CCOCc1cc(CN2CCC(n3nccc3NC(=O)C3CC3)CC2)ccc1OC`, the cell number change came out at 13.3%. Moreover, the AC50 under setting [1] was 25900 nM [falling, single point].
Consider `Cc1cc(S(=O)(=O)Nc2c(C(=O)O)[nH]c3ccccc23)ccc1F`, for which the cell number change amounted to 7.92%. Also, the AC50 under setting [1] was 5170 nM [falling, single point].
Consider `Cc1cc(-c2cccc(Br)c2)c(C#N)c(N)n1`, for which the cell number change worked out at 6.04%. In addition, under setting [2], the AC50 is 7310 nM [falling, single point]. Moreover, the half-maximal activity concentration (AC50) under setting [1] is 6510 nM [falling, single point].
With `Cc1ccc2c(c1)N(C(=O)NC1CCCCC1)C(C)(C)CC2C` (stereo not drawn), the cell number change is -15.9%. Besides, under setting [2], the half-maximal activity concentration (AC50) is 1640 nM [falling, partial curve].
As to `Cc1coc2c(C)c3oc(=O)c(CCC(=O)NCCCN4CCCC4=O)c(C)c3cc12`, the cell number change is -5.81%.
Regarding `Cc1cccc(C(=O)Nc2ccc(O)c3c(=O)cc(-c4ccccc4Cl)oc23)c1`, the cell number change was -33.9%. In addition, the concentration at half-maximal activity (AC50) under setting [2] is 29100 nM [falling, single point]. Moreover, the AC50 under setting [1] is 2060 nM [rising, partial curve, poor fit].
For `CCc1noc(C)c1C(=O)OCC(=O)NCc1ccccc1OC`, the cell number change is 6.77%. In addition, under setting [2], the AC50 was 731 nM [falling, full curve].
Regarding `Cc1ccc([N+](=O)[O-])cc1-c1ccc(/C=N\n2nnnc2N)o1`, the cell number change was -3.45%. Also, the concentration at half-maximal activity (AC50) under setting [1] was 29100 nM [rising, partial curve].
Consider `Cc1ccc(C(C(=O)NCc2ccco2)N(C(=O)CNC(=O)c2cccs2)c2c(C)cccc2C)cc1` (stereo not drawn), for which the cell number change was -52.8%. Under setting [2], the AC50 was 2590 nM [falling, full curve]. Besides, the AC50 under setting [1] is 2060 nM [falling, partial curve, poor fit].
On to `O=C1OC(c2ccccc2)=N/C1=C\C=C\c1ccccc1[N+](=O)[O-]`, for which the cell number change is -24.2%. The AC50 under setting [1] was 5800 nM [rising, partial curve].
As to `COc1ccc(/C=C/C(=O)N(CCC(N)=O)c2ccccc2)cc1S(=O)(=O)N1CCOCC1`, the cell number change was -5.22%.
Same read-out and setting: as for `COC(=O)C1=C(NC(=O)c2ccc(C)cc2)CCS1`, the figure is -14.1%.
Still for that read-out and setting: as for `Cc1ccc(C(=O)Nc2cccc([N+](=O)[O-])c2)cc1S(=O)(=O)Nc1cccc(C(=O)O)c1`, the figure is -1.58%.
As for `CC1(C)CC(=O)C=C(c2ccc(F)cc2OCc2ccccc2)C1`, the concentration at half-maximal activity (AC50) under setting [1] is 731 nM [falling, partial curve, poor fit].
For the compound `CCOC(=O)N1CCN(C(=O)c2cc3cc(C)ccc3[nH]2)CC1`, the cell number change is -2.47%. The AC50 under setting [1] was 29100 nM [rising, single point].
